The text below walks through data of patent US20160215065A1 (Genentech, published 2016).

These are yes or no findings as the source states them, for the method shown. Some entries that bind do so weakly or less than the wild type.

This assay has as its target T1, mouse zymogen NSP4 (mZ) (mouse), Q14B24.
T1 chain: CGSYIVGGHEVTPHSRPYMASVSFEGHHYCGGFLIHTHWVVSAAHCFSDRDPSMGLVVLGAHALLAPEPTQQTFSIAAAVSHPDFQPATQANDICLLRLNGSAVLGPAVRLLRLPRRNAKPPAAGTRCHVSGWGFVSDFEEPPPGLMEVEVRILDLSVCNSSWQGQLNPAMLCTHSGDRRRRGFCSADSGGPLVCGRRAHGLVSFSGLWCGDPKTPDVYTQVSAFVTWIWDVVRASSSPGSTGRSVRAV
Kind of assay: BLI; IgG1 on anti-human Fc sensor, NSP4 variant in solution, concentration not on sheet. Particulars: remark: other sources report otherwise. On the technique in general: Biolayer interferometry detects binding as a change in optical thickness at a sensor tip.

B1: anti-NSP4 antibody 5-2 (antibody, V domains shown)
VH: EVQLVESGGGLVQPGGSLRLSCAASGFTFSNTYISWVRQAPGKGLEWVGFIYPANGATYYADSVKGRFTISADTSKNTAYLQMNSLRAEDTAVYYCARRYRLSFDYWGQGTLVTVSS
VL: DIQMTQSPSSLSASVGDRVTITCRASQDVSTAVAWYQQKPGKAPKLLIYSASFLYSGVPSRFSGSGSGTDFTLTISSLQPEDFATYYCQQSYTTPPTFGQGTKVEIKR
For the molecule B1, the binding entry was “binds”.
